Results as given in the supplement of paper PMC12819154, “High-throughput peptide-centric local stability assay extends protein–ligand identification to membrane proteins, tissues and bacteria” (Nature Structural & Molecular Biology, 2025).
This is one part of the list. Most entries show no effect beyond the scatter of the controls.

Sequences of proteins named here, by UniProt entry; tags and fusion partners are left off. A change or cut given only in a name is not applied to a line headed by its entry.
UniProt Q9BTU6: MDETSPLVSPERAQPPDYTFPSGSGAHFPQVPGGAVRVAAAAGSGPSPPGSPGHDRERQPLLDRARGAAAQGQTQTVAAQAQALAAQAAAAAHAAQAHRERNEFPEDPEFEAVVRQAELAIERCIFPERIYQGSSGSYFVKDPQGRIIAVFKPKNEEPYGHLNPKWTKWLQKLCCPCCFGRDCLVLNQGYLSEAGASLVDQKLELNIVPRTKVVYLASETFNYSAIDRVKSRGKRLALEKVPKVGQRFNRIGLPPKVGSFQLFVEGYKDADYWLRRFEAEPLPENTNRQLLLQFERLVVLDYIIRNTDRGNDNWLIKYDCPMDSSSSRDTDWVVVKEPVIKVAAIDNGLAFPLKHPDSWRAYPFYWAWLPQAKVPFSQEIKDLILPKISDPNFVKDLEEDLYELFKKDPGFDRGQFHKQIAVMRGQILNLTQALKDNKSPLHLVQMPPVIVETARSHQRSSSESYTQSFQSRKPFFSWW
UniProt Q96T37: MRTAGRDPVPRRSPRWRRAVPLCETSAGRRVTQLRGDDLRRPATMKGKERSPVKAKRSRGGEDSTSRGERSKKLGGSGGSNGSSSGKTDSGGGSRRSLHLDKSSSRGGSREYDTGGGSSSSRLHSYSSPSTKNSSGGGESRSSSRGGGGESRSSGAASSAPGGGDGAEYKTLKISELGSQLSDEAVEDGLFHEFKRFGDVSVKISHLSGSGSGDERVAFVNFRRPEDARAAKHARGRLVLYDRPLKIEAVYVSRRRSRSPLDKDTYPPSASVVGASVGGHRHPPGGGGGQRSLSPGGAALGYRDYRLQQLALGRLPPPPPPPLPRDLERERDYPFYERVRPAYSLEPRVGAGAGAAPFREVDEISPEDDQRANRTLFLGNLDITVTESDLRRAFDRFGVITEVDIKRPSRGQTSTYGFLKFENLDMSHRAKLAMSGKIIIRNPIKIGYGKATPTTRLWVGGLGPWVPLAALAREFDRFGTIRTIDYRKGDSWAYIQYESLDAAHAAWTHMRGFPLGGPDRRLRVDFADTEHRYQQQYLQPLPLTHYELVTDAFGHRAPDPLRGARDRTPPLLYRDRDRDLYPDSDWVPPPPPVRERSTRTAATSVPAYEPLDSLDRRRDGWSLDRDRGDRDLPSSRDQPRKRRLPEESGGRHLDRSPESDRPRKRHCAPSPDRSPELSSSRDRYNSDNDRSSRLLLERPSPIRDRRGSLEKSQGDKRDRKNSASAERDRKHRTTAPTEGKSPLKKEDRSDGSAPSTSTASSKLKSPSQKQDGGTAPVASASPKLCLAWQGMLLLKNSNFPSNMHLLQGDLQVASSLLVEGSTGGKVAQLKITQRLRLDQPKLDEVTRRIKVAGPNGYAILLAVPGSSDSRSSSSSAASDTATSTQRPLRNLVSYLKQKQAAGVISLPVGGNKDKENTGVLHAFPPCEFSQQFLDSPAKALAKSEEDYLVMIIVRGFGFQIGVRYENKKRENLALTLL
UniProt Q9BRK5: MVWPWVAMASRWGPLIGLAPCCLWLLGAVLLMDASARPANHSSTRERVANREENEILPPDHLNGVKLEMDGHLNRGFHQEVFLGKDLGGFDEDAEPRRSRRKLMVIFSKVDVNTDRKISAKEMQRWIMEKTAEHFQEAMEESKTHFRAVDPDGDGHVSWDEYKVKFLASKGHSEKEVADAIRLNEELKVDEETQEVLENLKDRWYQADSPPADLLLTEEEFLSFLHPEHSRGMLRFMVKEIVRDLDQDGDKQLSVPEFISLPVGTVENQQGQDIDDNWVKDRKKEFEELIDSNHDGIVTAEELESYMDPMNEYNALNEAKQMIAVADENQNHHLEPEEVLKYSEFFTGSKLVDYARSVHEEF
UniProt Q9BUA3: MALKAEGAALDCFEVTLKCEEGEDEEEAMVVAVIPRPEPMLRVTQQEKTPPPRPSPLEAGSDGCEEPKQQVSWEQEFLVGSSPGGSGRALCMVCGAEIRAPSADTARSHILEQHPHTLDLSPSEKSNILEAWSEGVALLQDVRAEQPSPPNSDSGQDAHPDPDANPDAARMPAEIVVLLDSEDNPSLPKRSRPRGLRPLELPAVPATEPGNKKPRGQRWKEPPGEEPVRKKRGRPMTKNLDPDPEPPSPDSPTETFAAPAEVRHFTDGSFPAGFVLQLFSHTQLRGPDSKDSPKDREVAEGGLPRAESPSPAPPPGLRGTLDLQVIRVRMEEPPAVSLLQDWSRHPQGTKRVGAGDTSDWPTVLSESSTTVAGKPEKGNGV
UniProt Q99961: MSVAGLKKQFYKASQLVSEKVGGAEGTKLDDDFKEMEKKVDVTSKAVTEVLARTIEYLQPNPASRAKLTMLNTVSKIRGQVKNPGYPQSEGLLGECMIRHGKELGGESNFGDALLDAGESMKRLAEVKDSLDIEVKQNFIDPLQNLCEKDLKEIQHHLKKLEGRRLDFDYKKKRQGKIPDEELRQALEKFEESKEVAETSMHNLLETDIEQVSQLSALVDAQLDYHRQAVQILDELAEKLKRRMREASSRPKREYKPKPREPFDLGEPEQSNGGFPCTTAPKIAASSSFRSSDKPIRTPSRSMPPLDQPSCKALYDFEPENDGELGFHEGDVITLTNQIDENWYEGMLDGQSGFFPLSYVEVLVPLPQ
UniProt Q9BRT8: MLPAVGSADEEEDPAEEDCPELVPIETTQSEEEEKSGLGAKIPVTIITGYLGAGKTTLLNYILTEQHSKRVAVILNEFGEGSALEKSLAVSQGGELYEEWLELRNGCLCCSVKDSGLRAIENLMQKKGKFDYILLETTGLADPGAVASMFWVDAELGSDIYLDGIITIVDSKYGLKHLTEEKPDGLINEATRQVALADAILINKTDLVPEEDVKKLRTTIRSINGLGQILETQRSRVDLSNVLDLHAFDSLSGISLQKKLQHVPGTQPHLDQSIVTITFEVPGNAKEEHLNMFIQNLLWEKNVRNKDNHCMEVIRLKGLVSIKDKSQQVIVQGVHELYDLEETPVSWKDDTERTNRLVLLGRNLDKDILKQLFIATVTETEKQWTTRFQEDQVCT
UniProt Q96T66: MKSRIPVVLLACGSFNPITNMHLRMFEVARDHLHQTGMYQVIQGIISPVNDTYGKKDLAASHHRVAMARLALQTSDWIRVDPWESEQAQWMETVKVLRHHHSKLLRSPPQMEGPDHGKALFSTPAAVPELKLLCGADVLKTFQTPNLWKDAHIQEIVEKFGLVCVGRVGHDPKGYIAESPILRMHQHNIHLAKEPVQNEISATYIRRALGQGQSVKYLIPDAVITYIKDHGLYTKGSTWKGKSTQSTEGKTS
UniProt Q9BRR8: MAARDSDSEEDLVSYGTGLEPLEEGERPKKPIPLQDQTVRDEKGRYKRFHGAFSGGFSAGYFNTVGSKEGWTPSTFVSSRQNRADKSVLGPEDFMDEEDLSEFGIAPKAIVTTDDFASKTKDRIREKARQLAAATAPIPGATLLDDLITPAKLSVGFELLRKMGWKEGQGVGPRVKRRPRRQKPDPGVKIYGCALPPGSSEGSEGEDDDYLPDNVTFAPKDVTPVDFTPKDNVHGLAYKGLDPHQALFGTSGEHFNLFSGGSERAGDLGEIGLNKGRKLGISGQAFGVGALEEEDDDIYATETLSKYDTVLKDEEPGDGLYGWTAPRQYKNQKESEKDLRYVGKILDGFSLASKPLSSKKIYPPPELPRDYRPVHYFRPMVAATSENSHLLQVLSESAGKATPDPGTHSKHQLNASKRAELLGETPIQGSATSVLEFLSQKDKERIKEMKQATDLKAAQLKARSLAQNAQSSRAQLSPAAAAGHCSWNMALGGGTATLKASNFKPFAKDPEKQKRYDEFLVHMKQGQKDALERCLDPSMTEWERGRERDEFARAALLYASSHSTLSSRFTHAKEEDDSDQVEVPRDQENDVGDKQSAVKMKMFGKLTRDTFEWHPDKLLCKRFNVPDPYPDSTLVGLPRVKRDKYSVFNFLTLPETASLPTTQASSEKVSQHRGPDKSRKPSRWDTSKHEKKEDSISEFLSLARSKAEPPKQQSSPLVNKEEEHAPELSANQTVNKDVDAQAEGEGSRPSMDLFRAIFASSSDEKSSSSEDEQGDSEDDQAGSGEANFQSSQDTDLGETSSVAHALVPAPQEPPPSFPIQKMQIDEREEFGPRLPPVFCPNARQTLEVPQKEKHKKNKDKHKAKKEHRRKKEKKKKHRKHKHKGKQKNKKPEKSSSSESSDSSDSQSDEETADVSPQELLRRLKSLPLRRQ
UniProt Q9BSJ5: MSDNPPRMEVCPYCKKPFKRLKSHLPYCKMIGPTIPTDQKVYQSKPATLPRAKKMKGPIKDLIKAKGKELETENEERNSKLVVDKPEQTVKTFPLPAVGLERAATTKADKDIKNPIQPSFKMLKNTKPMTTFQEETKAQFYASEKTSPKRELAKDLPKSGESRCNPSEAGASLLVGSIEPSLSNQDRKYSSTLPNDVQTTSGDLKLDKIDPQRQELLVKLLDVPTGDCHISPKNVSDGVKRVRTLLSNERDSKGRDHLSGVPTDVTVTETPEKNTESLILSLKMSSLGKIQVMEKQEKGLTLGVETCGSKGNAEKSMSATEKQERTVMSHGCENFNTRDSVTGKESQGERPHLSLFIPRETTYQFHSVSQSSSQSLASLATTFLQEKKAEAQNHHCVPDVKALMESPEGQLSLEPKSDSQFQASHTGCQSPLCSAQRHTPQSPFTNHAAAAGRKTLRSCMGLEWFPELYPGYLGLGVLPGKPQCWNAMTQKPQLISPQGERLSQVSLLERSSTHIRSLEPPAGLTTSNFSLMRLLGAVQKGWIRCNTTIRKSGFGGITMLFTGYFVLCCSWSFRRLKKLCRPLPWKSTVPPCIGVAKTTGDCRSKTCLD
UniProt Q99933: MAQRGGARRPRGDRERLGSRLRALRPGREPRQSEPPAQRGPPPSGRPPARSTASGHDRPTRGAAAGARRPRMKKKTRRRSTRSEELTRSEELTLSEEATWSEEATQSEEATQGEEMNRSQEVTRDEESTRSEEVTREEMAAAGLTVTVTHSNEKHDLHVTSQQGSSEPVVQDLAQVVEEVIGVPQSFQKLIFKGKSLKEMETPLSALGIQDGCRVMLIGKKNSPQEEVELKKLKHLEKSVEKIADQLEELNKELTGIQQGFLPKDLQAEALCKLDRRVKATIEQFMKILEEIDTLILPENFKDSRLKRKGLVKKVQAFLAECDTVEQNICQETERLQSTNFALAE
UniProt Q9BSF8: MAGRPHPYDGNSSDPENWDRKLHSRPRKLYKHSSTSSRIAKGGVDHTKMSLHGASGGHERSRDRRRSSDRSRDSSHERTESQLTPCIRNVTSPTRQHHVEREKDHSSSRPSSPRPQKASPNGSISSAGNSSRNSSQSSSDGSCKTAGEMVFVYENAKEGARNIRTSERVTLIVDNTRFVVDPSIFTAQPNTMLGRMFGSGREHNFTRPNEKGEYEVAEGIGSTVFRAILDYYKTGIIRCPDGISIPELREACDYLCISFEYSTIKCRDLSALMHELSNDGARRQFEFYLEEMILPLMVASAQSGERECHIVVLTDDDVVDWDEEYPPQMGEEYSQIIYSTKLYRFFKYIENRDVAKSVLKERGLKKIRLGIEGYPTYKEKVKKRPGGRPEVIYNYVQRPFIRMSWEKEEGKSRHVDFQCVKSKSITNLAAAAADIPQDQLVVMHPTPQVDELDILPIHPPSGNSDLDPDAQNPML
UniProt Q9BQE4, whole entry: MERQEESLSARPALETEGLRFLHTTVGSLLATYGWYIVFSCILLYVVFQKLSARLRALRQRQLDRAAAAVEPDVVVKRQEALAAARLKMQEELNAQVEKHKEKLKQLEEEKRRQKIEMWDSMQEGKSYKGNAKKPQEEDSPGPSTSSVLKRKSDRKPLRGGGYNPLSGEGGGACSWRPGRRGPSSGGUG
UniProt Q96SI9: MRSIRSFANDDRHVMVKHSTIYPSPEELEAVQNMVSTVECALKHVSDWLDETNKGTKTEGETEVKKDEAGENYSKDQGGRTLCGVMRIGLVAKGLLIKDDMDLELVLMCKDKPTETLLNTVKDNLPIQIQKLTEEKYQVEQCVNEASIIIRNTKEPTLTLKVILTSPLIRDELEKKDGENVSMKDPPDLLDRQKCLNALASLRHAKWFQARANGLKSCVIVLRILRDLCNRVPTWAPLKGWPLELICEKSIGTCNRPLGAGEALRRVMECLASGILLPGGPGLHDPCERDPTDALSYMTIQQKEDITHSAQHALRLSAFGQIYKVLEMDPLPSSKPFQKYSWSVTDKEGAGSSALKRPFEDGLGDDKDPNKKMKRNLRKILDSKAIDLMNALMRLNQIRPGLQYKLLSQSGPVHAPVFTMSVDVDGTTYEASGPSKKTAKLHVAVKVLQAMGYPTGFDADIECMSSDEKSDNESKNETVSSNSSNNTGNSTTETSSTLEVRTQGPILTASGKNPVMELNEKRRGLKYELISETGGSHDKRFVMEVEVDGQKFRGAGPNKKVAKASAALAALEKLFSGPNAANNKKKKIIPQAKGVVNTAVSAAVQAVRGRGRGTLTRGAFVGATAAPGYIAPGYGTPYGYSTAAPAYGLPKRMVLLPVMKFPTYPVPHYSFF
UniProt Q9BRT2: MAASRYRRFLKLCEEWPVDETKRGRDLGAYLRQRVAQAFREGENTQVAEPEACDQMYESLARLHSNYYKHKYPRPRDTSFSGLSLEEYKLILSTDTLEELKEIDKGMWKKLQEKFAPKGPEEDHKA

compound: Cc1nc(Nc2ncc(C(=O)Nc3c(C)cccc3Cl)s2)cc(N2CCN(CCO)CC2)n1 [dasatinib]; assay: log2 fold change of tryptic peptide abundance, ligand vs vehicle (limited proteolysis) (log2 ratio); higher = more trypsin-susceptible (destabilized); settings: ligand concentration: 5 uM; sample: K562 cleared lysate

| Target | log2 fold change |
| --- | --- |
| PI4K2A (peptide sequence: LALEKVPK, peptide start residue: 236) (UniProt Q9BTU6) | -0.0258 |
| UniProt Q9BSW2 (peptide sequence: QLWLQLK, peptide start residue: 181) | -0.238 |
| MPHOSPH8 (peptide sequence: GLWSTDSAEEDKETKR, peptide start residue: 397) (UniProt Q99549) | -0.523 |
| RBM15 (peptide sequence: LRVDFADTEHR, peptide start residue: 522) (UniProt Q96T37) | -0.153 |
| SDF4 (peptide sequence: GHSEKEVADAIR, peptide start residue: 171) (UniProt Q9BRK5) | 0.139 |
| UniProt Q9BUA3 (peptide sequence: WKEPPGEEPVR, peptide start residue: 219) | -0.487 |
| PKP2 (peptide sequence: AHLTVGQAAAGGSGNLLTER, peptide start residue: 317) (UniProt Q99959) | -0.377 |
| SH3GL1 (peptide sequence: DSLDIEVK, peptide start residue: 129) (UniProt Q99961) | 0.103 |
| CBWD1 (peptide sequence: NGCLCCSVKDSGLR, peptide start residue: 105) (UniProt Q9BRT8) | -0.134 |
| NMNAT3 (peptide sequence: FGLVCVGR, peptide start residue: 160) (UniProt Q96T66) | 0.324 |
| UniProt Q9BTL3 (peptide sequence: FEEMFASR, peptide start residue: 11) | -0.141 |
| GPATCH1 (peptide sequence: QKPDPGVK, peptide start residue: 182) (UniProt Q9BRR8) | -0.336 |
| PAFAH2 (peptide sequence: AMLAFLQK, peptide start residue: 352) (UniProt Q99487) | 0.118 |
| UniProt Q96SY0 (peptide sequence: HSLATQNQR, peptide start residue: 128) | -0.0254 |
| C17orf80 (peptide sequence: NPIQPSFK, peptide start residue: 114) (UniProt Q9BSJ5) | -0.48 |
| FAM118B (peptide sequence: EGQLNGSSAAHSEIR, peptide start residue: 333) (UniProt Q9BPY3) | 0.0899 |
| MTR (peptide sequence: VIKETLPGAR, peptide start residue: 563) (UniProt Q99707) | 0.398 |
| BAG1 (peptide sequence: SEEVTREEMAAAGLTVTVTHSNEK, peptide start residue: 131) (UniProt Q99933) | 0.553 |
| TCHP (peptide sequence: LKEVEATK, peptide start residue: 229) (UniProt Q9BT92) | -1.13 |

Nothing new here: an excerpt of the list.

| Target | log2 fold change |
| --- | --- |
| NMNAT3 (peptide sequence: FGLVCVGR, peptide start residue: 160) (UniProt Q96T66) | 0.324 |
| UniProt Q9BTL3 (peptide sequence: FEEMFASR, peptide start residue: 11) | -0.141 |
| GPATCH1 (peptide sequence: QKPDPGVK, peptide start residue: 182) (UniProt Q9BRR8) | -0.336 |
| PAFAH2 (peptide sequence: AMLAFLQK, peptide start residue: 352) (UniProt Q99487) | 0.118 |
| UniProt Q96SY0 (peptide sequence: HSLATQNQR, peptide start residue: 128) | -0.0254 |
| C17orf80 (peptide sequence: NPIQPSFK, peptide start residue: 114) (UniProt Q9BSJ5) | -0.48 |
| FAM118B (peptide sequence: EGQLNGSSAAHSEIR, peptide start residue: 333) (UniProt Q9BPY3) | 0.0899 |
| MTR (peptide sequence: VIKETLPGAR, peptide start residue: 563) (UniProt Q99707) | 0.398 |

Further records follow.

| Target | log2 fold change |
| --- | --- |
| MED10 (peptide sequence: SLLIQELSK, peptide start residue: 107) (UniProt Q9BTT4) | -0.21 |
| CCNL2 (peptide sequence: GSKPSPLSVK, peptide start residue: 344) (UniProt Q96S94) | 0.367 |
| UniProt Q99683 (peptide sequence: ILTEDQDKIVR, peptide start residue: 1057) | -0.279 |
| ANP32E (peptide sequence: KKINLELR, peptide start residue: 5) (UniProt Q9BTT0) | -0.108 |
| GORASP1 (peptide sequence: ANVEKPVKLEVFNMK, peptide start residue: 61) (UniProt Q9BQQ3) | 0.357 |
| YME1L1 (peptide sequence: FDMQVTVPRPDVK, peptide start residue: 498) (UniProt Q96TA2) | 0.486 |
| UniProt Q99879 (peptide sequence: AVTKYTSSK, peptide start residue: 119) | -0.0982 |
| OSBPL9 (peptide sequence: HTLQLQGLDSGFVPSVQDFDKK, peptide start residue: 101) (UniProt Q96SU4) | 0.298 |
| BTBD10 (peptide sequence: AILDYYK, peptide start residue: 227) (UniProt Q9BSF8) | 0.107 |
| UniProt Q9BQE4 (peptide sequence: AAAAVEPDVVVK, peptide start residue: 66) | 0.25 |
| PYGO2 (peptide sequence: KQGKAGLQMK, peptide start residue: 30) (UniProt Q9BRQ0) | 0.0529 |
| ACO2 (peptide sequence: EHAALEPR, peptide start residue: 672) (UniProt Q99798) | 0.217 |
| CDK5RAP2 (peptide sequence: MHEGDLAMALVLDEKDR, peptide start residue: 205) (UniProt Q96SN8) | 0.562 |
| UniProt Q9BRP8 (peptide sequence: LRQVEELQQR, peptide start residue: 161) | 0.27 |
| STRBP (peptide sequence: AIDLMNALMR, peptide start residue: 385) (UniProt Q96SI9) | -0.359 |
| SH2D3A (peptide sequence: GNMGVSSGLELLTLPHGHHLR, peptide start residue: 340) (UniProt Q9BRG2) | -0.626 |
| UniProt Q99607 (peptide sequence: DQAHLQPLPTQVVSR, peptide start residue: 572) | -0.134 |
| UniProt Q9BRT2 (peptide sequence: LCEEWPVDETKR, peptide start residue: 12) | -0.66 |
